Data published in publication PMC10837126.
These are yes or no findings as the source states them, for the method shown. In cells and extracts the contact can be indirect. Some binding calls cover weakened binding; strength is not graded here.

By UniProt entry, the sequences of proteins in these tests, tags left out. Residues count along the entry.
UniProt P97793, residues 19-1621: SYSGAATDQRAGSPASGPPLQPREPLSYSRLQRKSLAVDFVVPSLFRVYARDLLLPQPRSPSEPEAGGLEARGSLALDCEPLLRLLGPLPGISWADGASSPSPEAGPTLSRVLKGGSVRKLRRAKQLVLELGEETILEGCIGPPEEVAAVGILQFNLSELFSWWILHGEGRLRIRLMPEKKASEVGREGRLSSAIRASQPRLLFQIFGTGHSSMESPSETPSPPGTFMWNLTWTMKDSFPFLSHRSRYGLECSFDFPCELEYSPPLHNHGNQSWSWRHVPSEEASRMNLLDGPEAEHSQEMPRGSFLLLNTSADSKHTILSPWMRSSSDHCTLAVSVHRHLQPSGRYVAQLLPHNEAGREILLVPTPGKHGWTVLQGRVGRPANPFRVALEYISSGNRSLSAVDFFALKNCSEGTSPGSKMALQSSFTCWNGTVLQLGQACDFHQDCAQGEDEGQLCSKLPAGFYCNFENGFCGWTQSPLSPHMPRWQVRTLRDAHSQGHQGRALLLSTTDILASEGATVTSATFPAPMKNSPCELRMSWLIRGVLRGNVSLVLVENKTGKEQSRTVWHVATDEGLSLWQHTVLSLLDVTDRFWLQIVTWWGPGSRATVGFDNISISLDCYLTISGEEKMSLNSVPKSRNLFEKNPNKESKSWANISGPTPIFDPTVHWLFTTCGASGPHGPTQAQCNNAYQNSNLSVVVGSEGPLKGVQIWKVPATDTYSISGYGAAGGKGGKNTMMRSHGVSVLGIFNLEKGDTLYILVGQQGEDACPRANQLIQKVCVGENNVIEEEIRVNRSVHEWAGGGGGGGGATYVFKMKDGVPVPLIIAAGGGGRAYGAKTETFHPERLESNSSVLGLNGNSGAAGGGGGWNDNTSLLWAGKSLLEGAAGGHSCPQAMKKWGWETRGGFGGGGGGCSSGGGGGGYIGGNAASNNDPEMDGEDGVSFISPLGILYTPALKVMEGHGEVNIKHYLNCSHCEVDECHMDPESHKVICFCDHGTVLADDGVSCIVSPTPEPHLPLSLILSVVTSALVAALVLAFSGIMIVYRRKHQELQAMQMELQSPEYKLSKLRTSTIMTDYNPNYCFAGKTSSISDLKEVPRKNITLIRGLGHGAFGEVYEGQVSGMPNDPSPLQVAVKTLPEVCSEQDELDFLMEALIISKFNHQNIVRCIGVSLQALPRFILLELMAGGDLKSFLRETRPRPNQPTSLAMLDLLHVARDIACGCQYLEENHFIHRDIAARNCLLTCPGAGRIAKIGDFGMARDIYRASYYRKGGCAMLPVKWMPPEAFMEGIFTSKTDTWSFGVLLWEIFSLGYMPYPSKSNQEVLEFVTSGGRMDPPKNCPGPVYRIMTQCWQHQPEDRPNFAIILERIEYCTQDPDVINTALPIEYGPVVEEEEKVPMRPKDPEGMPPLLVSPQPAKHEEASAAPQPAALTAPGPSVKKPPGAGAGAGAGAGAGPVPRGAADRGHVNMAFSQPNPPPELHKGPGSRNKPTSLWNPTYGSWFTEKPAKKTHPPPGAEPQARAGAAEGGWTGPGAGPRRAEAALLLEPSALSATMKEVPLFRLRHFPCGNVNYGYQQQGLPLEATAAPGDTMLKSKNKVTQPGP

Legend:
[1] = target: T1, Recombinant mouse RNase1 protein (cat. no. abx068908, Abbexa) (mouse) (UniProt P00683); assay: pull-down; lysates (RIPA buffer) of BMDM or RAW264.7 cells incubated with or without recombinant mouse RNase1 at 4 °C for 4 h, then with GST fusion protein-binding magnetic beads at 4 °C for 8 h; washed with RIPA buffer; Western blot; only the target purified
T1 sequence: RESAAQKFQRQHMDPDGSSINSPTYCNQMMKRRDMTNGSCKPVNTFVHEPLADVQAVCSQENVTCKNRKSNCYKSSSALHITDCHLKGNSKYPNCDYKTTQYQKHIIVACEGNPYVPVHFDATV

[2] = target: Anaplastic lymphoma kinase (ALK), endogenous in mouse macrophages (mouse (endogenous in BMDMs and Raw264.7)) (UniProt P97793); assay: proximity ligation; Duolink In Situ Red; Raw264.7 sgCtrl or sgAlk cells treated with or without RNase1 (1 μg/ml) for 15 min, fixed, permeabilised, anti-ALK and anti-RNase1 antibodies; only the binder purified

Anaplastic lymphoma kinase (ALK), endogenous in mouse macrophages (from UniProt P97793 19-1621) (receptor)
binding [1]: binds

B1: Recombinant RNase1 protein added to cells (1 μg/ml) (ligand, UniProt P00683 26-149)
chain: RESAAQKFQRQHMDPDGSSINSPTYCNQMMKRRDMTNGSCKPVNTFVHEPLADVQAVCSQENVTCKNRKSNCYKSSSALHITDCHLKGNSKYPNCDYKTTQYQKHIIVACEGNPYVPVHFDATV
binding [2]: binds
